# Melanoma cell counts after drug treatment

Source: doi:10.1371/journal.pone.0140310, primary screening data, rounded.

Every entry is a combination with PD173074 at 0.5 µM: CCN(CC)CCCCNc1ncc2cc(-c3cc(OC)cc(OC)c3)c(NC(=O)NC(C)(C)C)nc2n1

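Human melanoma cells were exposed to two drugs together for 72 h in 1,536-well plates and read by automated microscopy after fixing and staining. Each value is the count of nuclei relative to DMSO-treated wells, in %, so that 100 equals the control. Concentrations were fixed for each drug; these are the higher of two levels. The file gives one value for each pair and line, without errors, so small differences may be noise.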
An unselected part of the screen is shown.
An entry leaves out what has no value listed here.

- Cn1c(=O)n(-c2ccc(C(C)(C)C#N)cc2)c2c3cc(-c4cnc5ccccc5c4)ccc3ncc21 at 0.02 µM | WM451Lu: 76.6; COLO 829: 77.2; COLO 792: 52.2; WM3619: 62.2; C32: 96.3; COLO 800: 66.1
- O=C(Oc1ccc([N+](=O)[O-])cc1)N1CCC(C(O)(c2ccc3c(c2)OCO3)c2ccc3c(c2)OCO3)CC1 at 5 µM | WM451Lu: 85.3; COLO 829: 130; COLO 792: 80.2; WM3619: 115; C32: 110; COLO 800: 72.3
- OCCn1cc(-c2cnc3nnn(Cc4ccc5ncccc5c4)c3n2)cn1 at 5 µM | WM451Lu: 98.7; COLO 829: 112; COLO 792: 91.4; WM3619: 91.7; C32: 113; COLO 800: 75.1
- O=C(CCCCCCC(=O)Nc1ccccc1)NO at 0.4 µM | WM451Lu: 90.8; COLO 829: 105; COLO 792: 68.5; WM3619: 62.5; C32: 108; COLO 800: 62.2
- CO[C@H]1C[C@@H]2CC[C@@H](C)[C@@](O)(O2)C(=O)C(=O)N2CCCC[C@H]2C(=O)O[C@H]([C@H](C)C[C@@H]2CC[C@@H](OCCO)[C@H](OC)C2)CC(=O)[C@H](C)/C=C(\C)[C@@H](O)[C@@H](OC)C(=O)[C@H](C)C[C@H](C)/C=C/C=C/C=C/1C at 0.1 µM | WM451Lu: 68.3; COLO 829: 84.2; COLO 792: 56.8; WM3619: 72.8; C32: 96.2; COLO 800: 56.4
- CNC(=O)c1cc(Oc2ccc(NC(=O)Nc3ccc(Cl)c(C(F)(F)F)c3)cc2)ccn1 at 2 µM | WM451Lu: 104; COLO 829: 108; COLO 792: 136; WM3619: 124; C32: 123; COLO 800: 97.3
- C=CCNC1=C2C[C@@H](C)C[C@H](OC)[C@H](O)[C@@H](C)/C=C(\C)[C@H](OC(N)=O)[C@@H](OC)/C=C\C=C(/C)C(=O)NC(=CC1=O)C2=O at 0.01 µM | WM451Lu: 65.7; COLO 829: 96.9; COLO 792: 80.7; WM3619: 50.7; C32: 18.2; COLO 800: 116
- O=C(/C=C/c1cccnc1)NCCCCC1CCN(C(=O)c2ccccc2)CC1 at 0.05 µM | WM451Lu: 113; COLO 829: 52.5; COLO 792: 43.6; WM3619: 70.6; C32: 100; COLO 800: 31.1
- CC1(C)NC(=O)N(c2ccc([N+](=O)[O-])c(C(F)(F)F)c2)C1=O at 5 µM | WM451Lu: 101; COLO 829: 106; COLO 792: 86.1; C32: 106; COLO 800: 61.8
- Cc1ccc(Nc2nccc(N(C)c3ccc4c(C)n(C)nc4c3)n2)cc1S(N)(=O)=O at 2 µM | WM451Lu: 77.3; COLO 829: 87.3; COLO 792: 88.4; WM3619: 82.9; C32: 108; COLO 800: 99.5
- Clc1ccc(Nc2nnc(Cc3ccncc3)c3ccccc23)cc1 at 10 µM | WM451Lu: 76.0; COLO 829: 82.7; COLO 792: 55.6; WM3619: 50.6; C32: 88.4; COLO 800: 77.7
- OCc1c[nH]c2ccccc12 at 4 µM | WM451Lu: 87.9; COLO 829: 112; COLO 792: 86.3; WM3619: 94.6; C32: 93.4; COLO 800: 67.7
- C/C(O)=C(\C#N)C(=O)Nc1cc(Br)ccc1Br at 10 µM | WM451Lu: 91.6; COLO 829: 89.5; COLO 792: 98.5; WM3619: 71.4; C32: 107; COLO 800: 61.0
- C[As](C)SC[C@H](NC(=O)CC[C@H](N)C(=O)O)C(=O)NCC(=O)O at 2 µM | WM451Lu: 62.8; COLO 829: 104; COLO 792: 90.6; WM3619: 80.1; C32: 140; COLO 800: 66.5
- Cn1cc(C2=C(c3cn(C4CCN(Cc5ccccn5)CC4)c4ccccc34)C(=O)NC2=O)c2ccccc21 at 4 µM | WM451Lu: 79.2; COLO 829: 83.7; COLO 792: 80.8; WM3619: 90.6; C32: 123; COLO 800: 83.8
- COc1cc(Nc2ncc(F)c(Nc3ccc4c(n3)NC(=O)C(C)(C)O4)n2)cc(OC)c1OC at 2 µM | WM451Lu: 66.3; COLO 829: 76.4; COLO 792: 47.5; WM3619: 62.6; C32: 84.7; COLO 800: 60.7
- CN(NC(=O)CC(=O)NN(C)C(=S)c1ccccc1)C(=S)c1ccccc1 at 0.03 µM | WM451Lu: 70.6; COLO 829: 53.2; COLO 792: 20.4; WM3619: 4.9; C32: 35.3; COLO 800: 40.8
- CC(C)(C)c1cnc(CSc2cnc(NC(=O)C3CCNCC3)s2)o1 at 0.05 µM | WM451Lu: 46.9; COLO 829: 97.3; COLO 792: 102; WM3619: 63.6; C32: 76.2; COLO 800: 43.8
- CO[C@@H]1[C@H](N(C)C(=O)c2ccccc2)C[C@H]2O[C@]1(C)n1c3ccccc3c3c4c(c5c6ccccc6n2c5c31)C(=O)NC4 at 0.4 µM | WM451Lu: 88.3; COLO 829: 77.0; COLO 792: 67.0; WM3619: 67.1; C32: 80.7; COLO 800: 49.0
- Cc1cc(N2CCOCC2)cc2[nH]c(-c3c(NC[C@@H](O)c4cccc(Cl)c4)cc[nH]c3=O)nc12 at 1 µM | WM451Lu: 77.0; COLO 829: 108; COLO 792: 59.9; WM3619: 69.1; C32: 91.3; COLO 800: 22.1

For reference, 2 entries once more:

| Partner | WM451Lu | COLO 829 | COLO 792 | WM3619 | C32 | COLO 800 |
|---|---|---|---|---|---|---|
| CO[C@H]1C[C@@H]2CC[C@@H](C)[C@@](O)(O2)C(=O)C(=O)N2CCCC[C@H]2C(=O)O[C@H]([C@H](C)C[C@@H]2CC[C@@H](OCCO)[C@H](OC)C2)CC(=O)[C@H](C)/C=C(\C)[C@@H](O)[C@@H](OC)C(=O)[C@H](C)C[C@H](C)/C=C/C=C/C=C/1C at 0.1 µM | 68.3 | 84.2 | 56.8 | 72.8 | 96.2 | 56.4 |
| O=C(/C=C/c1cccnc1)NCCCCC1CCN(C(=O)c2ccccc2)CC1 at 0.05 µM | 113 | 52.5 | 43.6 | 70.6 | 100 | 31.1 |